From PubChem BioAssay AID2685 (National Center for Advancing Translational Sciences (NCATS), 2010)
Hit rate of the full screen: of about 320,000 compounds, about 2,100 (0.66%) were called active. This list was built around the results that the source calls inconclusive (neither active nor inactive); the mix of calls is not that of the screen. The call rests on the fitted dose curve; in most records, active means well fitted inhibition curve with a large enough effect in the signal ratio, with a control signal flat (not every such curve was filed as active); inconclusive means small, poorly fitted or top-dose-only effect, or effect the other way, or a change in a side signal; inactive means flat fitted curve, though single readings scatter; the % refers to the signal ratio. Potencies beside an inconclusive call are fits to weak or partial responses and may not hold up.

test: qHTS Assay for Lipid Storage Modulators in Drosophila S3 Cells; conditions: BODIPY lipid droplet fluorescence, 18-24 h, cells fed with added oleic acid; lipid storage change, negative = inhibition: at 46.1 µM (top of the series) unless noted
How it was run: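 Drosophila S3 cells got compounds at several concentrations plus oleic acid (400 uM solution). Laser-scanning cytometry with 488 nm excitation read lipid droplets at 500-530 nm and cells at 575-640 nm. Percent activity was relative to 20 uM Triacsin C.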
On the % scale 0 is the no-effect control and ±100 the full control effect; potency means the concentration at half of the fitted maximal effect.

| SMILES | lipid storage change, negative = inhibition | Potency |
| --- | --- | --- |
| CN(CCC1CCOCC1)C(=O)c1cc(COc2c(F)cccc2F)on1 | inconclusive: 350% | – |
| O=C(Nc1ccccc1C(=O)NCc1ccccc1)C1=CSCCO1 | – | inconclusive: 6.51 µM [activator, partial curve] |
| Cc1cccc(C(=O)c2ccccc2C(=O)O)c1 | – | inconclusive: 29.1 µM [cytotoxic, single point] |
| CS(=O)(=O)N(CC(=O)NCCSCc1ccccc1)c1ccccc1F | inconclusive: 13.6% | – |
| CC(C)Sc1nnc(NC(=O)c2ccc3c(c2)OCO3)s1 | inactive: -3.82% | – |
| O=c1ccc2ccc(Oc3ccc([N+](=O)[O-])cc3[N+](=O)[O-])cc2o1 | – | inconclusive: 18.4 µM [falling, single point] |
| O=C(N/N=C\c1cccnc1)c1ccc(Cl)cc1Cl | inconclusive: 20.8% | – |
| O=[N+]([O-])c1nn(-c2ccc3c(c2)OCCO3)n(O)c1=NCCCO | – | inconclusive: 29.1 µM [falling, single point] |
| CCOC(=O)C1=C(C)N=C2SC(C(=O)OC)=CC(=O)N2C1c1ccc(OC)cc1 (stereo not given) | inconclusive: -14.3% | – |
| COc1ccc(N(CC(=O)NN=C2CCCCCCC2)S(=O)(=O)c2ccccc2)cc1 | – | inconclusive: 7.31 µM [activator, partial curve, poor fit] |
| COc1cccc(OCCc2c(C)n[nH]c2C)c1 | – | inconclusive: 2.06 µM [activator, partial curve] |
| COc1ccc(NC(=O)C2CC(=O)N(Cc3ccco3)C2)cc1Cl (stereo not given) | inconclusive: 23.8% | – |
| O=C(c1cccc(Cl)c1)N1CCCC(C(=O)N2CCCCCC2)C1 (stereo not given) | inactive: -16.5% | – |
| C/C(=C\c1ccccc1)CN1CCC(C(=O)N2CCCC(C)C2)CC1 (stereo not given) | inconclusive: 8.17% | – |
| Cc1cccc2sc(NC(=O)c3ccc(NS(=O)(=O)c4cccs4)cc3)nc12 | inconclusive: 23.5% | – |
| Cc1ccc(/C=C/C(=O)NC2=NCCS2)cc1 | – | inconclusive: 29.1 µM [rising, single point] |
| CCn1c(SCC(=O)NC(=O)NCc2ccco2)nc2sc(C)c(C)c2c1=O | inconclusive: 342% | – |
| CC(c1ccccc1)n1c(NCCCn2ccnc2)nc2c1c(=O)[nH]c(=O)n2C (stereo not given) | inconclusive: 15.4% | – |
| O=C(COC(=O)c1nc(Cl)ccc1Cl)Nc1ncc(Cl)cc1Cl | inconclusive: 30.3% | – |
| O=C(COc1ccc([N+](=O)[O-])cc1Cl)NCCc1ccccc1 | – | inconclusive: 0.103 µM [rising, full curve, poor fit] |
| Cc1nnsc1C(=O)Nc1ccc(S(=O)(=O)N2CCC(C)CC2)cc1 | – | inconclusive: 23.1 µM [falling, single point] |
| CN(CCCC1CCCC1)C(=O)c1cc(COc2ccc(F)c(F)c2)on1 | inconclusive: -66.8% | – |
| O=C(COc1ccc2ccccc2c1Br)NCc1ccccn1 | inconclusive: -43.7% [cytotoxic] [at 0.00295 µM] | – |
| CC(=O)C1=C(O)CC(c2ccccc2)CC1=NCCc1c(C)[nH]c2ccccc12 (stereo not given) | – | inconclusive: 6.51 µM [activator, partial curve] |
| CCn1cc(C(=O)NCC2CCCO2)c2cc(OC)c(OC)cc2c1=O (stereo not given) | inconclusive: 15.1% | – |

12 compounds out of the list, sorted by heavy-atom count, falling:

| SMILES | lipid storage change, negative = inhibition | Potency |
| --- | --- | --- |
| COc1ccc(N(CC(=O)NN=C2CCCCCCC2)S(=O)(=O)c2ccccc2)cc1 | – | inconclusive: 7.31 µM [activator, partial curve, poor fit] |
| CCOC(=O)C1=C(C)N=C2SC(C(=O)OC)=CC(=O)N2C1c1ccc(OC)cc1 (stereo not given) | inconclusive: -14.3% | – |
| Cc1cccc2sc(NC(=O)c3ccc(NS(=O)(=O)c4cccs4)cc3)nc12 | inconclusive: 23.5% | – |
| CN(CCCC1CCCC1)C(=O)c1cc(COc2ccc(F)c(F)c2)on1 | inconclusive: -66.8% | – |
| CS(=O)(=O)N(CC(=O)NCCSCc1ccccc1)c1ccccc1F | inconclusive: 13.6% | – |
| C/C(=C\c1ccccc1)CN1CCC(C(=O)N2CCCC(C)C2)CC1 (stereo not given) | inconclusive: 8.17% | – |
| O=[N+]([O-])c1nn(-c2ccc3c(c2)OCCO3)n(O)c1=NCCCO | – | inconclusive: 29.1 µM [falling, single point] |
| O=C(COC(=O)c1nc(Cl)ccc1Cl)Nc1ncc(Cl)cc1Cl | inconclusive: 30.3% | – |
| CC(C)Sc1nnc(NC(=O)c2ccc3c(c2)OCO3)s1 | inactive: -3.82% | – |
| O=C(N/N=C\c1cccnc1)c1ccc(Cl)cc1Cl | inconclusive: 20.8% | – |
| Cc1cccc(C(=O)c2ccccc2C(=O)O)c1 | – | inconclusive: 29.1 µM [cytotoxic, single point] |
| Cc1ccc(/C=C/C(=O)NC2=NCCS2)cc1 | – | inconclusive: 29.1 µM [rising, single point] |

Remaining list, next part:

| SMILES | lipid storage change, negative = inhibition | Potency |
| --- | --- | --- |
| Cc1ccc(C)c(NC(=O)CCN2C(=O)[C@@H]3Cc4ccccc4CN3C2=O)c1 | inconclusive: 26% | – |
| CCN1CCN(C(=O)c2cccc(OC3CCN(S(C)(=O)=O)CC3)c2)[C@@H](C)C1=O | – | inconclusive: 29.1 µM [activator, single point] |
| N#Cc1c(-c2cccs2)nc(SCc2ccc(Cl)cc2)[nH]c1=O | inconclusive: 3.29% | – |
| O=C(Nc1nc2ccccc2[nH]1)c1ccc(Cl)c([N+](=O)[O-])c1 | inconclusive: 5.98% | – |
| Cc1cccc(C(=O)NC(NCc2ccco2)C(Cl)(Cl)Cl)c1 (stereo not given) | inconclusive: 8.09% | – |
| CC(=O)CCC(=O)OCC(=O)Nc1ccc(SC(F)F)cc1 | inconclusive: -15.2% | – |
| COCc1c(C(=O)N/N=C\c2cccnc2)nnn1-c1nonc1N | – | inconclusive: 29.1 µM [activator, single point] |
| Cc1cccc(NC(=O)c2nc[nH]c2C(=O)N[C@@H](C)C(=O)OC(C)(C)C)c1 | inconclusive: -35.7% | – |
| COc1ccc(CN2CCCC(C(=O)c3ccc4c(c3)OCO4)C2)c(F)c1 (stereo not given) | – | inconclusive: 0.82 µM [activator, full curve, poor fit] |
| COc1ccc(-c2nc(SC(C)C(=O)NC3CC3)n[nH]2)cc1 (stereo not given) | – | active: 1.84 µM |
| COc1ccc2c(c1)CCc1c-2nc2ccccc2c1N1CCOCC1 | inconclusive: 0.557% | – |
| COc1ccc(/C=C2\CCC(C3CCCC3)C2=O)c(OC)c1OC (stereo not given) | inconclusive: 14.5% | – |
| S=c1[nH]nc(CN2CCCCC2)n1Cc1ccccc1 | inactive: 17.3% | – |
| COc1ccc(COC(=O)CCN=C2NS(=O)(=O)c3ccccc32)cc1F | inconclusive | – |
| O=C(OCCC1Oc2cccnc2NC1=O)c1ccc(Cl)cc1 (stereo not given) | inconclusive: 5.53% | – |
| O=c1oc2cc(S(=O)(=O)NCCCO)ccc2c2ccc(S(=O)(=O)NCCCO)cc12 | – | inconclusive: 13 µM [activator, single point] |
| Cc1cc(C)nc(SCC(=O)NNS(=O)(=O)c2ccc(C#N)cc2)n1 | inconclusive | – |
| COc1cc(OC)cc(C(=O)N(Cc2cc3cc(C)ccc3[nH]c2=O)C(C)C)c1 | – | inconclusive: 0.461 µM [activator, full curve] |
| N#Cc1ccc(NCC(=O)N2CCN(S(=O)(=O)c3ccccc3)CC2)cc1 | – | inconclusive: 7.31 µM [falling, single point] |
| Cc1cccc(NC(=O)N2CCN(Cc3ccc(Cl)cc3)CC2)c1 | – | inconclusive: 8.2 µM [falling, partial curve] |
| CC(NS(=O)(=O)c1ccc(OCC(=O)N2CCCC2)cc1)c1ccccc1 (stereo not given) | inconclusive: -36.6% | – |
| Cc1nn2c(=O)c(NC(=O)c3ccc(F)cc3)cnc2s1 | – | inconclusive: 29.1 µM [falling, single point] |
| COc1ccc(C2/C(=C(\O)c3ccc4c(c3)CC(C)O4)C(=O)C(=O)N2Cc2cccnc2)c(OC)c1 (stereo not given) | inconclusive: 6.3% | – |
| CCN(CC)S(=O)(=O)c1ccc(N2CCN(C)CC2)c(NC(=O)CSCC(=O)Nc2cccc(C)c2)c1 | inconclusive | – |
| COc1ccccc1NC(=O)C(=O)NCC(c1ccco1)N1CCc2ccccc2C1 (stereo not given) | – | inconclusive: 5.8 µM [activator, partial curve] |

| SMILES | lipid storage change, negative = inhibition | Potency |
| --- | --- | --- |
| COc1cc2c(cc1OC)CN(C(=O)CCNC(=O)c1ccc(Br)cc1)CC2 | – | inconclusive: 18.4 µM [activator, partial curve] |
| Cc1ccc(NC(=O)CCNS(=O)(=O)c2ccc(OC(F)(F)F)cc2)c(O)c1 | inconclusive: 30.6% | – |
| C=CCc1cc(OC)ccc1OCC(O)CN1CCN(c2ccc(OC)cc2)CC1 (stereo not given) | inconclusive: 81% | – |
| Cc1ccc(-n2c(SCc3cc(=O)n4ccsc4n3)nnc2-c2cccnc2)c(C)c1 | inconclusive: 26.6% | – |
| CC(C)C[C@H](NC(=O)OC(C)(C)C)C(=O)N[C@@H](CO)[C@H](O)[C@@H]1C[C@@H]1C(=O)N(C)C | inconclusive: 23.3% | – |
| Cc1oc2cc(Br)c(O)c(Br)c2c1-c1ccccc1 | – | inconclusive: 29.1 µM [cytotoxic, single point] |
| CCOP(=O)(OCC)C(Nc1cccc([N+](=O)[O-])c1)c1ccc(N(C)C)cc1 (stereo not given) | inconclusive: -2.77% | – |
| CCOc1ccccc1NC(=O)Cc1cccs1 | inconclusive: 55.7% | – |
| O=C(Cn1c(-c2cncs2)nc2ccccc21)NC1CCCC1 | – | inconclusive: 16.4 µM [activator, single point] |
| CCOC(=O)C(NC(=O)c1ccccc1)(N1CCOCC1)C(F)(F)F (stereo not given) | inconclusive: 1.17% | – |
| O=C(NCc1ccc2c(c1)OCO2)C12CC3CC(CC(C3)C1)C2 | – | inconclusive: 29.1 µM [activator, single point] |
| Cc1onc(-c2ccccc2Cl)c1C(=O)NCc1nc(-c2ccc(C(F)(F)F)cc2)no1 | inconclusive: -9.28% | – |
| COc1cccc(/C=C2\SC(=O)N(CCC(=O)N3CCCCC3CCO)C2=O)c1 (stereo not given) | – | inconclusive: 29.1 µM [falling, single point] |
| CSCCC(NC(=O)c1ccccc1Br)C(=O)NNC(=O)c1ccncc1 (stereo not given) | inconclusive: -22.5% | – |
| CCOC(=O)C1CSc2[nH]c(=O)sc2C1c1ccccc1 (stereo not given) | inconclusive: 0.716% | – |
| CC(C)OCCCNC(=O)CCc1nc(-c2ccccc2)no1 | inconclusive: -15.8% | – |
| Cc1ccc(/C=N/NC(=O)c2ccc(-n3cccc3)cc2)o1 | – | inconclusive: 29.1 µM [activator, single point] |
| COc1ccc(N(C)S(=O)(=O)c2c(C)[nH]c(=O)[nH]c2=O)cc1 | inconclusive: 1.48% | – |
| O=C1NC2(CCCCC2)CO1 | – | inconclusive: 1.16 µM [activator, full curve, poor fit] |
| CCOCCCNC(=O)CCCC1=NS(=O)(=O)c2ccccc2N1 | inconclusive: 0.137% | – |
| COc1cccc(CNC(=O)CSc2nc(=O)n(Cc3ccncc3)c3c2CCC3)c1 | inconclusive: 9.47% | – |
| C=CCc1ccccc1OCC(=O)N/N=C/c1ccc(OC(C)=O)cc1OC(C)=O | inconclusive: 4.46% | – |
| Cc1nc2ccccc2c(=O)n1CCCN1CCOCC1 | – | inconclusive: 0.0517 µM [falling, full curve, poor fit] |
| O=C(Nc1ccc(F)cc1)c1ccc(CN2CCc3ccccc3C2)cc1 | – | active: 5.17 µM |
| O=C(NCCN1CCOCC1)c1ccc(Cl)c(S(=O)(=O)N2CCCCCC2)c1 | inconclusive: 32.5% | – |

Two neighbouring entries out of the list so far:

| SMILES | lipid storage change, negative = inhibition | Potency |
| --- | --- | --- |
| CC(C)C[C@H](NC(=O)OC(C)(C)C)C(=O)N[C@@H](CO)[C@H](O)[C@@H]1C[C@@H]1C(=O)N(C)C | inconclusive: 23.3% | – |
| Cc1oc2cc(Br)c(O)c(Br)c2c1-c1ccccc1 | – | inconclusive: 29.1 µM [cytotoxic, single point] |
